Results from US6703362.
These are yes or no findings as the source states them, for the method shown. Some results given as binding are weak or reduced against the parent protein; the word gives no strength.

The chains behind the UniProt entries cited, without tags or fusion partners. Where a name states a change or a piece, a line headed by the entry shows the natural chain unless it says otherwise.
UniProt P14410: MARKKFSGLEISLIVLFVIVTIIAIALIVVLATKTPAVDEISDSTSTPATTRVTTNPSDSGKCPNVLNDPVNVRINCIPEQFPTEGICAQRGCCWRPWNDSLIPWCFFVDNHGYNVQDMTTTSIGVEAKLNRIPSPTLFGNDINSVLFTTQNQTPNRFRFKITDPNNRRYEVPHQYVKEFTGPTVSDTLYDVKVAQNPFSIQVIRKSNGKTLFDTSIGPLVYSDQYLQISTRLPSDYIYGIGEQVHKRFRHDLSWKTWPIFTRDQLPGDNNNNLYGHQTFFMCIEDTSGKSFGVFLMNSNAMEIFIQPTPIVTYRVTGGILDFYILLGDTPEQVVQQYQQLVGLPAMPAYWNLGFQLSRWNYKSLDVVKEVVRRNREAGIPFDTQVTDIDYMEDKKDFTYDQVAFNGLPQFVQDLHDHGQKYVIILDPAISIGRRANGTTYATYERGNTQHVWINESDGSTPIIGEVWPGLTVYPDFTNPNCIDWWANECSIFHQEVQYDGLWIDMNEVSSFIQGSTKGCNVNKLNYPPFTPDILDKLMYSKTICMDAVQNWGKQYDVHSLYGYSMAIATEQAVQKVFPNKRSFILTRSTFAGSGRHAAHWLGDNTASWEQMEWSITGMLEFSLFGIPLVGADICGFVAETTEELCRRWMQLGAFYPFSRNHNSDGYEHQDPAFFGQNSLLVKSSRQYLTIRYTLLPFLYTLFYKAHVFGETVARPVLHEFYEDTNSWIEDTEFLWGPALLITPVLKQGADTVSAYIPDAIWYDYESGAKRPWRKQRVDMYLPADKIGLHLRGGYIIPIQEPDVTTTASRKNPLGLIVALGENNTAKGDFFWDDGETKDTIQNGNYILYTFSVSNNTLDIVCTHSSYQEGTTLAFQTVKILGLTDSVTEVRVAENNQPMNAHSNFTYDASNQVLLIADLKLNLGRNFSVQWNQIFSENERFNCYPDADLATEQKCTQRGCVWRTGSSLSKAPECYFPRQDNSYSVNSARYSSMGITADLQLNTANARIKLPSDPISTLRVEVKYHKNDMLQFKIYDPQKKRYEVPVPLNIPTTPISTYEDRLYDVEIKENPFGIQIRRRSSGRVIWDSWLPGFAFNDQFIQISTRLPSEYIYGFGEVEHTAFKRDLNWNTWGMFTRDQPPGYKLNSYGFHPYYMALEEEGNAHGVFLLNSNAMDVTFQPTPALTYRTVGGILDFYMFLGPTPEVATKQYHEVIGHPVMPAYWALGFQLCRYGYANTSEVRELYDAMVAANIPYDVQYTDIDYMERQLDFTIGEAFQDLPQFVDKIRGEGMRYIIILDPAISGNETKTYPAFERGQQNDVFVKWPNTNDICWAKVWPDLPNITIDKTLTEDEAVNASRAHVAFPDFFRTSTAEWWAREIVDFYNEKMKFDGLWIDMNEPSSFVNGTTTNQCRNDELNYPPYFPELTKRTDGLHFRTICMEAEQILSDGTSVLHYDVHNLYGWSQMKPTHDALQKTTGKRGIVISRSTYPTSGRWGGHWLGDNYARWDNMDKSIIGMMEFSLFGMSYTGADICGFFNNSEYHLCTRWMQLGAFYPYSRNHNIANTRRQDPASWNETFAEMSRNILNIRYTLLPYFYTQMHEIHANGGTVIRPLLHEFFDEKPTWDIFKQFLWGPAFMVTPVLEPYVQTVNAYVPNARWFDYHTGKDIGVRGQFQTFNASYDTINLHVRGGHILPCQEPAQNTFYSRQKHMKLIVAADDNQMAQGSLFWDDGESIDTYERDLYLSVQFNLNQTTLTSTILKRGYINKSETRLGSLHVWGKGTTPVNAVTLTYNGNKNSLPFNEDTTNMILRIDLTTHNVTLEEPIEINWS
UniProt P69168: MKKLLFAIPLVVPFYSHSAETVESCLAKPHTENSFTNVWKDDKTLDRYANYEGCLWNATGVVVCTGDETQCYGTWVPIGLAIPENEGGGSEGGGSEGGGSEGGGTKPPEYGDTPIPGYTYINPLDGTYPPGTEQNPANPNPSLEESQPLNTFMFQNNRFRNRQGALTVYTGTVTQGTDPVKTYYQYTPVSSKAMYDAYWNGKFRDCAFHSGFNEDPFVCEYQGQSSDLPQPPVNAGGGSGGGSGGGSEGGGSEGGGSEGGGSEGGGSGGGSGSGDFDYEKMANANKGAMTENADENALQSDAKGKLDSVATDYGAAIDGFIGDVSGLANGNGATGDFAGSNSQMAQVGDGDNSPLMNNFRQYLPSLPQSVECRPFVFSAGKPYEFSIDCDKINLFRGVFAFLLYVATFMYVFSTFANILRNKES

Target: hSI receptor domain (human sucrase-isomaltase complex, amino acid residues 272-667), His-tag fusion protein (human) (UniProt P14410)
Experiment: phage panning and ELISA on hSI domain; listed under hSI in Table 7

## SNiAX4 (from UniProt P69168 19-424) (peptide)
  binding: binds
